Counter-ions that a name gives are not always drawn. The list shows a part of the results. The calls rarely recur for the same compound in another form.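 Kinases, fused to nanoluciferase, were expressed in K562 cells; luminescence was measured every 4 h from 2 to 18 h as percent of control (DMSO = 100%, positive control = 0%). A time point is decreased if signal falls significantly (2 sigma). Hits were called by the authors by a rule that is not shown; the count of time points alone does not decide it.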
Key:
Assay in all cases: kinase-Nluc reporter destabilization hit call (1 = scored as downregulated) (binary); higher = compound decreases kinase abundance
Conditions in all cases: K562, 2-18 h
BRAF_V600E = test system: BRAF_V600E
BTK = BTK (UniProt Q06187)
CAMK2A = CAMK2A (UniProt Q9UQM7)
CAMK2G = CAMK2G (UniProt Q13555)
CDK10 = CDK10 (UniProt Q15131)
CDK2 = CDK2 (UniProt P24941)
CDK3 = CDK3 (UniProt Q00526)
CDK4 = CDK4 (UniProt P11802)
CDK5 = CDK5 (UniProt Q00535)
CDK6 = CDK6 (UniProt Q00534)

Sequences of proteins named here, by UniProt entry; tags and fusion partners are left off. A change or cut given only in a name is not applied to a line headed by its entry.
UniProt Q06187: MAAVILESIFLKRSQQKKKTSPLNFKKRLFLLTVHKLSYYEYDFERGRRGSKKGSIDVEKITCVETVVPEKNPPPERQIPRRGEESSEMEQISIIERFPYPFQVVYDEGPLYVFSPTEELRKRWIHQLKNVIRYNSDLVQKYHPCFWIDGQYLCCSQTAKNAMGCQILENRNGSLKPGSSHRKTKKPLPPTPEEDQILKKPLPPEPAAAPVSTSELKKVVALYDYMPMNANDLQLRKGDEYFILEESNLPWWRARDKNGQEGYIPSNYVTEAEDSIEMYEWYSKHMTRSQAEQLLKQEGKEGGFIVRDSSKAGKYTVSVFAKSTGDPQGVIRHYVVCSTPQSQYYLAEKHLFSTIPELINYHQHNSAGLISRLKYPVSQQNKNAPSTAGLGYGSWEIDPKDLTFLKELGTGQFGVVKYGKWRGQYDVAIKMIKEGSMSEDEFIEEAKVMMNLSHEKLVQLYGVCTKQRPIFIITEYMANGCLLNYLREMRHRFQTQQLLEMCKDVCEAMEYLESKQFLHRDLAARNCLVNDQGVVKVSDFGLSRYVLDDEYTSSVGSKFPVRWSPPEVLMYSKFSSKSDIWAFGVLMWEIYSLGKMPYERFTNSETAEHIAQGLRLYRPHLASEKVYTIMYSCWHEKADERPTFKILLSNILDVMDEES
UniProt Q9UQM7, whole entry: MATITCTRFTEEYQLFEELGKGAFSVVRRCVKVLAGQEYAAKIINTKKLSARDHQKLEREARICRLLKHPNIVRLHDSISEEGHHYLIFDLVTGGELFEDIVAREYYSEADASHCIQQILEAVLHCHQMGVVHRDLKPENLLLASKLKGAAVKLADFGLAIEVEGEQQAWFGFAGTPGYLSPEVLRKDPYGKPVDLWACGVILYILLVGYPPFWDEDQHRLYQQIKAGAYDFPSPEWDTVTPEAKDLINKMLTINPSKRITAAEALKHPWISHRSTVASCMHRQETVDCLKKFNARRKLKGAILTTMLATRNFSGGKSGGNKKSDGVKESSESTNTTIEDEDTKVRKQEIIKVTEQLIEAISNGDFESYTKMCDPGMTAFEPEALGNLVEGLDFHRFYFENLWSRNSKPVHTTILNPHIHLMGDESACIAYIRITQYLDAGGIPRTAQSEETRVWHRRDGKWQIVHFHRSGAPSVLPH
UniProt Q13555: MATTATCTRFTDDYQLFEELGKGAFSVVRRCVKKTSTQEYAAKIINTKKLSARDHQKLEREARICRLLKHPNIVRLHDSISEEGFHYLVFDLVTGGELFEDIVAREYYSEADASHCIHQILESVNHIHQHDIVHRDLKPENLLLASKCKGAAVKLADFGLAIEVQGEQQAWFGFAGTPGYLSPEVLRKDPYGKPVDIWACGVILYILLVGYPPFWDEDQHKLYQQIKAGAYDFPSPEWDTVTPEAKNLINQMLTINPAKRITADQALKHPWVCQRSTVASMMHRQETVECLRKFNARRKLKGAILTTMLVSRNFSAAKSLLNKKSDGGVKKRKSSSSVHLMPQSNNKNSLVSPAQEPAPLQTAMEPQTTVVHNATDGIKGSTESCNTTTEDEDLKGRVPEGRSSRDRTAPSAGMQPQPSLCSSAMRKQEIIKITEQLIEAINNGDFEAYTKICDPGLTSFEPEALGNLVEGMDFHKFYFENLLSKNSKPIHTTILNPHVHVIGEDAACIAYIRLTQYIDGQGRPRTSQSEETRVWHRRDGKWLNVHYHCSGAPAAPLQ
UniProt Q15131: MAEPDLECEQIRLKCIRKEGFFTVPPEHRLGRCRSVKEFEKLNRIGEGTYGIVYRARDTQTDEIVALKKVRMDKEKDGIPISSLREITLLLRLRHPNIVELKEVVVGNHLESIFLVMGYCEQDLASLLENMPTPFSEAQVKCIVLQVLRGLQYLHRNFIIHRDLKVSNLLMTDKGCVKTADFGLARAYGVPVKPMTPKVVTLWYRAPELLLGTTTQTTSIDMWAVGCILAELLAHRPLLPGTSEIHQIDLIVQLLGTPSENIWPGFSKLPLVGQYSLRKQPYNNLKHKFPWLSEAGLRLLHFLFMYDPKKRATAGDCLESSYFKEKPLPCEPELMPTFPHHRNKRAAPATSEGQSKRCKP
UniProt Q00526: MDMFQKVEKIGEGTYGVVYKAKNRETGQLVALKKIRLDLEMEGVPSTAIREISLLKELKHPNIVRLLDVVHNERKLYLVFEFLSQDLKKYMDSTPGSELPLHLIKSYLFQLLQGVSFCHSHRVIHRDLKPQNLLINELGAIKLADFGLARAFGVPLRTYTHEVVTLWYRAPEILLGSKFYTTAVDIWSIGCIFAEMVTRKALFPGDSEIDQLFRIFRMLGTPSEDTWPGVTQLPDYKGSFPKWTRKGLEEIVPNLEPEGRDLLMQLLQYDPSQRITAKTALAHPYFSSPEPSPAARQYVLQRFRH
UniProt P11802: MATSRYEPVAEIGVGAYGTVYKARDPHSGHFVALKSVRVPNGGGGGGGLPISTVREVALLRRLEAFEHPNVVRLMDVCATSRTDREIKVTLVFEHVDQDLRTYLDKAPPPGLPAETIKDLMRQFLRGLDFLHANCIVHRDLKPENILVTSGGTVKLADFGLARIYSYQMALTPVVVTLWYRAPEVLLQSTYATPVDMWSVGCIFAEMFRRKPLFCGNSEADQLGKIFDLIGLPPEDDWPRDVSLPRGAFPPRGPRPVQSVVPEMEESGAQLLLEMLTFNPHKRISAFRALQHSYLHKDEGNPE
UniProt Q00535, whole entry, looked up: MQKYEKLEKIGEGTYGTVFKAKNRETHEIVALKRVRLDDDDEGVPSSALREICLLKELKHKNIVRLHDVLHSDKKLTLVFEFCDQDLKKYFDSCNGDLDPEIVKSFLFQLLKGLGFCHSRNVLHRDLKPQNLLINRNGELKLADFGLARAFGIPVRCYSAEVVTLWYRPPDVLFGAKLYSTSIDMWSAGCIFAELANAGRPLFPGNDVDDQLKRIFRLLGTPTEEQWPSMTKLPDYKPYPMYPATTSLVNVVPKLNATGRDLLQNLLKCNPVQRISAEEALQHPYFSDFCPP
UniProt Q00534, whole entry: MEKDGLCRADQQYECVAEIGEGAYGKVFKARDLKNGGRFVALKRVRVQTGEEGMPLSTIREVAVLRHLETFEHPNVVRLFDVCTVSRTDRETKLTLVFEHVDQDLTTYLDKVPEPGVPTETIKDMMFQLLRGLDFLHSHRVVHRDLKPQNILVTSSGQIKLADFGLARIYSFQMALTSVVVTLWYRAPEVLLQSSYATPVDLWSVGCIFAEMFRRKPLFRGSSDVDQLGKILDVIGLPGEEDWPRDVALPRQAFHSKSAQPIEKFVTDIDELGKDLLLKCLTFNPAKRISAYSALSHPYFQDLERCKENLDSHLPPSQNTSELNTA

Measured: kinase-Nluc reporter destabilization hit call

CC(=O)c1c(C)c2cnc(Nc3ccc(N4CCN(C(=O)CCCCCC(=O)N[C@H](C(=O)N5C[C@H](O)C[C@H]5C(=O)NCc5ccc(-c6scnc6C)cc5)C(C)(C)C)CC4)cn3)nc2n(C2CCCC2)c1=O
inactive: BRAF_V600E; 2.5 µM 0 | BTK; 2.5 µM 0 | CAMK2A; 2.5 µM 0 | CAMK2G; 2.5 µM 0 | CDK10; 2.5 µM 0 | CDK2; 2.5 µM 0 | CDK3; 2.5 µM 0 | CDK4; 2.5 µM 0 | CDK5; 2.5 µM 0 | CDK6; 2.5 µM 0

C[C@@H]1O[C@@H](Oc2c(-c3ccc(O)c(O)c3)oc3cc(O)cc(O)c3c2=O)[C@H](O)[C@H](O)[C@H]1O [Quercitrin]
inactive: BRAF_V600E; 10 µM 0 | BTK; 10 µM 0 | CAMK2A; 10 µM 0 | CAMK2G; 10 µM 0 | CDK10; 10 µM 0 | CDK2; 10 µM 0 | CDK3; 10 µM 0 | CDK4; 10 µM 0 | CDK5; 10 µM 0 | CDK6; 10 µM 0

Cc1ccccc1-n1c(Cn2nc(-c3cccc(O)c3)c3c(N)ncnc32)nc2cccc(C)c2c1=O
inactive: BRAF_V600E; 10 µM 0

Cc1cc(Nc2cc(N3CCN(C)CC3)nc(/C=C/c3ccccc3)n2)n[nH]1
inactive: BRAF_V600E; 2.5 µM 0 | BTK; 2.5 µM 0 | CAMK2A; 2.5 µM 0 | CAMK2G; 2.5 µM 0 | CDK10; 2.5 µM 0 | CDK2; 2.5 µM 0 | CDK3; 2.5 µM 0 | CDK4; 2.5 µM 0 | CDK5; 2.5 µM 0 | CDK6; 2.5 µM 0

Cc1nc2c(-c3cnc(N)nc3)nc(N3CCOCC3)nc2n1C(C)C
inactive: BRAF_V600E; 2.5 µM 0

O=C1NC(=O)c2c1c(-c1ccccc1)cc1[nH]c3ccc(O)cc3c21
inactive: BRAF_V600E; 2.5 µM 0

NC(=O)c1c(OCc2c(F)cc(Br)cc2F)nsc1NC(=O)NCCCCN1CCCC1
inactive: BRAF_V600E; 2.5 µM 0 | BTK; 2.5 µM 0 | CAMK2A; 2.5 µM 0 | CAMK2G; 2.5 µM 0 | CDK10; 2.5 µM 0 | CDK2; 2.5 µM 0 | CDK3; 2.5 µM 0 | CDK4; 2.5 µM 0 | CDK5; 2.5 µM 0 | CDK6; 2.5 µM 0

O=c1ncn2nc(Sc3ccc(F)cc3F)ccc2c1-c1c(Cl)cccc1Cl [Neflamapimod]
inactive: BRAF_V600E; 10 µM 0 | BTK; 10 µM 0 | CAMK2A; 10 µM 0 | CAMK2G; 10 µM 0 | CDK10; 10 µM 0 | CDK2; 10 µM 0 | CDK3; 10 µM 0 | CDK4; 10 µM 0 | CDK5; 10 µM 0 | CDK6; 10 µM 0

NC1(C(=O)N[C@@H](CCO)c2ccc(Cl)cc2)CCN(c2nc[nH]c3nccc2-3)CC1 [Capivasertib]
inactive: BRAF_V600E; 10 µM 0 | BTK; 10 µM 0 | CAMK2A; 10 µM 0 | CAMK2G; 10 µM 0 | CDK10; 10 µM 0 | CDK2; 10 µM 0 | CDK3; 10 µM 0 | CDK4; 10 µM 0 | CDK5; 10 µM 0 | CDK6; 10 µM 0

Cc1ccc2c(=O)c3cccc(CC(=O)O)c3oc2c1C [Vadimezan]
inactive: BRAF_V600E; 10 µM 0 | BTK; 10 µM 0 | CAMK2A; 10 µM 0 | CAMK2G; 10 µM 0 | CDK10; 10 µM 0 | CDK2; 10 µM 0 | CDK3; 10 µM 0 | CDK4; 10 µM 0 | CDK5; 10 µM 0 | CDK6; 10 µM 0

Cc1ccc(Nc2nccc(N(C)c3ccc4c(C)n(C)nc4c3)n2)cc1S(N)(=O)=O [Pazopanib (Hydrochloride)]
inactive: BRAF_V600E; 10 µM 0 | BTK; 10 µM 0 | CAMK2A; 10 µM 0 | CAMK2G; 10 µM 0 | CDK10; 10 µM 0 | CDK2; 10 µM 0 | CDK3; 10 µM 0 | CDK4; 10 µM 0 | CDK5; 10 µM 0 | CDK6; 10 µM 0

COc1cccc(C2=NN(c3ccc(S(N)(=O)=O)cc3)C(c3ccc(Br)cc3)C2)c1 (centres undefined)
inactive: BRAF_V600E; 10 µM 0

Cc1cnc(Nc2ccc(OCCN3CCCC3)cc2)nc1Nc1cccc(S(=O)(=O)NC(C)(C)C)c1 [Fedratinib]
inactive: BRAF_V600E; 2.5 µM 0 | BTK; 2.5 µM 0 | CAMK2A; 2.5 µM 0 | CAMK2G; 2.5 µM 0 | CDK10; 2.5 µM 0 | CDK2; 2.5 µM 0 | CDK3; 2.5 µM 0 | CDK4; 2.5 µM 0 | CDK5; 2.5 µM 0 | CDK6; 2.5 µM 0

Nc1nc(Nc2ccc(S(N)(=O)=O)cc2)nn1C(=O)c1c(F)cccc1F
inactive: BRAF_V600E; 2.5 µM 0 | BTK; 2.5 µM 0 | CAMK2A; 2.5 µM 0 | CAMK2G; 2.5 µM 0 | CDK10; 2.5 µM 0 | CDK2; 2.5 µM 0 | CDK3; 2.5 µM 0 | CDK4; 2.5 µM 0 | CDK5; 2.5 µM 0 | CDK6; 2.5 µM 0

COc1cc(N2CCN(C(C)=O)CC2)ccc1Nc1ncc(Cl)c(Nc2ccc(N3CCN(C(C)=O)CC3)cc2OC)n1
inactive: BRAF_V600E; 10 µM 0

No new results follow: two of the compounds above.
O=C1NC(=O)c2c1c(-c1ccccc1)cc1[nH]c3ccc(O)cc3c21
inactive: BRAF_V600E; 2.5 µM 0

NC(=O)c1c(OCc2c(F)cc(Br)cc2F)nsc1NC(=O)NCCCCN1CCCC1
inactive: BRAF_V600E; 2.5 µM 0 | BTK; 2.5 µM 0 | CAMK2A; 2.5 µM 0 | CAMK2G; 2.5 µM 0 | CDK10; 2.5 µM 0 | CDK2; 2.5 µM 0 | CDK3; 2.5 µM 0 | CDK4; 2.5 µM 0 | CDK5; 2.5 µM 0 | CDK6; 2.5 µM 0

(listing goes on)

C[C@@H]1[C@H](C)[C@H](c2ccc3c(c2)OCO3)O[C@H]1c1ccc2c(c1)OCO2 [(-)-Zuonin A]
inactive: BRAF_V600E; 10 µM 0

CC(C)n1nc(-c2cc3cc(O)ccc3[nH]2)c2c(N)ncnc21 [Torkinib]
inactive: BRAF_V600E; 2.5 µM 0 | BTK; 2.5 µM 0 | CAMK2A; 2.5 µM 0 | CAMK2G; 2.5 µM 0 | CDK10; 2.5 µM 0 | CDK2; 2.5 µM 0 | CDK3; 2.5 µM 0 | CDK4; 2.5 µM 0 | CDK5; 2.5 µM 0 | CDK6; 2.5 µM 0

CC(C)[C@@](C)(O)[C@@H]1CN(c2nc(-c3[nH]nc4ncccc34)c(F)cc2Cl)CCN1
inactive: BRAF_V600E; 10 µM 0 | BTK; 10 µM 0 | CAMK2A; 10 µM 0 | CAMK2G; 10 µM 0 | CDK10; 10 µM 0 | CDK2; 10 µM 0 | CDK3; 10 µM 0 | CDK4; 10 µM 0 | CDK5; 10 µM 0 | CDK6; 10 µM 0

CC(C)(C)c1cc(NC(=O)Nc2ccc(-c3cccc4c(N)nccc34)cc2)no1
inactive: BRAF_V600E; 2.5 µM 0

CCCCCC1CC1CC1CC1CCCCCCCC(=O)OC (centres undefined)
inactive: BRAF_V600E; 10 µM 0 | BTK; 10 µM 0 | CAMK2A; 10 µM 0 | CAMK2G; 10 µM 0 | CDK10; 10 µM 0 | CDK2; 10 µM 0 | CDK3; 10 µM 0 | CDK4; 10 µM 0 | CDK5; 10 µM 0 | CDK6; 10 µM 0

O=C1COc2cc(O)ccc2-c2cc(O)c(O)cc2C1 [Protosappanin A]
inactive: BRAF_V600E; 10 µM 0

N[C@H]1CCCCNc2nc(ncc2C(=O)NCc2ccc(F)cc2)NCCCCCCNC1=O
inactive: BRAF_V600E; 10 µM 0
